Results from the supplement of paper PMC10689618.
Where a name gives a salt, the structure may show the parent alone. Some of the results follow. Single values are uncertain, as repeats are few or missing.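 Primary human fetal astrocytes engulfed labelled rat cortical synaptosomes, measured as a red/green ratio corrected for calcein live-cell signal and scaled to the plate median. Toxicity meant calcein falling over 30%; decreased phagocytosis meant below 70% of median above 5 µM.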

These compounds were tested on Human fetal astrocytes (assay: synaptosome phagocytosis (pHrodo/calcein intensity ratio) relative to plate median of data wells; higher = more phagocytosis). Settings: 2.78 µM; 24 h.

Point of comparison: `CCC(=O)c1ccc2c(c1)N(CCCN(C)C)c1ccccc1S2` [Propionylpromazine hydrochloride], synaptosome phagocytosis 70.2%. Against it:
- Brc1ccc([C@H]2CN3CCSC3=N2)cc1 [S(-)-p-Bromotetramisole oxalate] — higher, 118%
- CN1C2CCC1CC(NC(=O)c1nn(C)c3ccccc13)C2 (stereo not given) [LY-278,584 maleate] — higher, 121%
- C=C[C@H]1CN2CC[C@H]1C[C@H]2[C@H](O)c1ccnc2ccc(OC)cc12 [Quinine sulfate] — higher, 89.8%
- NCCCCCCCCCCN [1,10-Diaminodecane] — higher, 111%
- Cl.N[C@@H](CCC(=O)O)C(=O)O [L-Glutamic acid hydrochloride] — higher, 110%
- NC(=O)OCC(COC(N)=O)c1ccccc1 [Felbamate] — higher, 92.9%
- CNC(=O)c1cc2c(cn1)[nH]c1ccccc12 [N-Methyl-beta-carboline-3-carboxamide] — higher, 118%
- CCCCCCCCCC(=O)NC(CN1CCOCC1)[C@H](O)c1ccccc1 (mixture of isomers) — higher, 117%
- COc1cc2c(cc1OC)-c1c/c(=N\c3c(C)cc(C)cc3C)n(C)c(=O)n1CC2 [Trequinsin hydrochloride] — higher, 96.9%
- COC1(C2=NCCN2)COc2ccccc2O1 (stereo not given) — higher, 102%

Same assay, conditions: 5.56 µM; 24 h

Point of comparison: `NC/C=C/C(=O)O` [(E)-4-amino-2-butenoic acid], synaptosome phagocytosis 117%. Against it:
- Cc1cc2c(cc1Cl)N(C(=O)Nc1cccc3ncccc13)CC2 — the same, 117%
- CNCC[C@@H](Oc1ccccc1C)c1ccccc1 [Tomoxetine] — lower, 102%
- CCSC(N)=Nc1ccc(C(F)(F)F)cc1 [TFPI hydrochloride] — lower, 104%
- NCCCCNS(=O)(=O)c1ccc2c(Cl)cccc2c1 — lower, 100%
- CC1CCN(CC[C@H]2CCCN2S(=O)(=O)c2cccc(O)c2)CC1 — lower, 72%
- OC[C@H]1O[C@@H](n2cnc3c(Nc4ccccc4)ncnc32)[C@H](O)[C@@H]1O [N6-Phenyladenosine] — lower, 84.6%
- CNCC[C@H](Oc1ccc(C(F)(F)F)cc1)c1ccccc1 [S-(+)-Fluoxetine hydrochloride] — lower, 91.9%
- Nc1nc(Cl)nc2c1ncn2[C@@H]1O[C@H](CO)[C@@H](O)[C@H]1O [2-Chloroadenosine] — lower, 105%
- C#C[C@]1(O)CC[C@H]2[C@@H]3CCC4=Cc5oncc5C[C@]4(C)[C@H]3CC[C@@]21C [Danazol] — lower, 93%
- N#C/C(=C\c1ccc(O)c(O)c1)C(=O)c1ccc(O)c(O)c1 [Tyrphostin AG 538] — lower, 111%
- NCC(O)c1ccc(O)c(O)c1 (racemic) [(±)-Norepinephrine (+)bitartrate] — lower, 108%
- CN1CCN(CCCN2c3ccccc3Sc3ccc(Cl)cc32)CC1 [Prochlorperazine dimaleate] — lower, 76.8%
- CCOC(=O)c1cnc2c(cnn2CC)c1NN=C(C)C [Etazolate hydrochloride] — lower, 103%
- CCn1nc(C(=O)O)c(=O)c2cc3c(cc21)OCO3 [Cinoxacin] — lower, 109%
- CC(C)(C)[C@]1(O)CCN2C[C@H]3c4ccccc4CCc4cccc(c43)[C@@H]2C1 [(+)-Butaclamol hydrochloride] — lower, 80%
- CCCCCC(O)CCCC(=O)O (stereo not given) [5-hydroxydecanoic acid sodium] — lower, 63%
- CC(C)C1C2CCC(C2)C1N (stereo not given) — lower, 94.6%
- CC1(C)CCC2=C(O1)c1ccccc1C(=O)C2=O [beta-Lapachone] — lower, 83.2%
- Brc1c(NC2=NCCN2)ccc2nccnc12 — lower, 104%
- O=C1NC(=O)C(c2ccccc2)(c2ccccc2)N1 [5,5-Diphenylhydantoin] — higher, 131%
- CN(C)c1ccc(/C=C2/C(=O)Nc3ccccc32)cc1 — lower, 95.5%
- CC(=O)NC(C(=O)O)C(C)(C)SN=O (stereo not given) [S-Nitroso-N-acetylpenicillamine] — the same, 117%
- COc1ccccc1N1CCN(CCN2C(=O)CC3(CCCC3)CC2=O)CC1 [BMY 7378 dihydrochloride] — lower, 95.1%
- CN1[C@@H]2CC[C@H]1CC(OC(=O)c1c[nH]c3ccccc13)C2 (stereo not given in full) [3-Tropanyl-indole-3-carboxylate hydrochloride] — higher, 120%
- N=C(N)SCCc1ccc(CCSC(=N)N)cc1 [1,4-PBIT dihydrobromide] — lower, 115%
- CC(CCc1ccc(O)cc1)NCCc1ccc(O)c(O)c1 (stereo not given) [Dobutamine hydrochloride] — higher, 121%
- CC[N+](C)(C)Cc1ccccc1Br [Bretylium tosylate] — lower, 104%
- N#C/C(=C\c1ccc(O)c(O)c1)C(=O)Nc1ccccc1 [Tyrphostin AG 494] — lower, 103%
